# Test results reported in PubChem BioAssay AID493014 (National Center for Advancing Translational Sciences (NCATS), 2011).
# The whole screen tested about 340,000 compounds, of which about 170 (0.05%) were called active. Inconclusive means that the source gave no clear call. Such entries were picked first, then a sample of the others. Calls follow the shape of the dose curve; as a rule, active = well fitted inhibition curve with a large enough effect in the signal ratio, with a control signal flat (not every such curve was filed as active); inconclusive = small, poorly fitted or top-dose-only effect, or effect the other way, or a change in a side signal; inactive = flat fitted curve, though single readings scatter; the % refers to the signal ratio. Potencies of inconclusive entries are doubtful fits and often do not repeat.
# Experiment: qHTS Assay to Find Inhibitors of Chronic Active B-Cell Receptor Signaling;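 as to activity change, negative = inhibition: plate controls were basal doxycycline-induced cells for no effect and cells given 10 µM MG132 for full effect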
# Details: ABC-DLBCL IkBa-CBG/CBR reporter, luminescence ratio (green luciferase fused to IkBa over red control in TMD8 lymphoma cells), 4 h; activity change, negative = inhibition: at 46.1 µM (top of the series)
# How it was run: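 Concentration-response series (up to 46 uM) were applied to TMD8 dual-reporter cells for 4 h at 37C with doxycycline. Green/red ratio, after filter-overlap correction, defined %Activity; red signal alone was normalised to basal cells and zero luminescence.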
# Potency is read from the fitted curve at half-maximal effect.
SMILES,Potency,"activity change, negative = inhibition"
Cc1[nH]c2ccccc2c1-c1nc2ccccc2[nH]1,"inconclusive: 35.5 µM [rising, partial curve]",–
O=C(CCNC(=O)c1ccc(Br)cc1)Nc1cccc(S(=O)(=O)N2CCCCCC2)c1,–,inconclusive: -1.8%
O=C(NCCc1ccccc1)NC(Cc1ccccc1)C(=O)O (configuration not stated),–,inconclusive: 1.88%
Cc1nc(Nc2cccc(O)c2)c2c3c(sc2n1)CCC3,–,inconclusive: 3.65%
O=C(Nc1ccc(Br)cn1)c1coc(=O)c(Br)c1,–,inconclusive: -1.36%
CC1CCc2sc(C(=O)OCC(=O)NCc3ccccc3)cc2C1 (configuration not stated),–,inactive: -0.219%
O=C(Nc1c(F)cc(F)cc1Br)c1cc(-c2ccc(O)cc2)on1,"inconclusive: 3.55 µM [falling, partial curve, poor fit]",–
C=CCOc1ccc(/C=C/C(=O)OCC(=O)N2CCC(c3ccccc3)=N2)cc1,–,inconclusive: -1.03%
Cc1ccc(C)c(-c2nnc(NC(=O)CCS(=O)(=O)c3ccc(F)cc3)o2)c1,–,inactive: 1.19%
O=C(Nc1ccccc1)N1CCc2ccccc2C1,"inconclusive: 3.26 µM [falling, partial curve]",–
c1ccc(CSc2ncnc3c2cnn3Cc2ccccc2)cc1,"inconclusive: 2.06 µM [rising, partial curve, poor fit]",–
O=C(O)c1cccc(NN=C2c3ccccc3-c3ccccc32)c1,"inconclusive: 22.4 µM [falling, single point]",–
O=c1c2ccccc2nnn1CSc1nnc2ccccn12,–,inactive: -7.95%
CCN(CC)C(=O)c1ccc(C(=O)Nc2ccc(F)cc2)cc1,–,inconclusive: 17.3%
CN(C)c1ccc(/C=C/c2nc3ccccc3c(=O)[nH]2)cc1,–,inconclusive: 1.88%
COc1cc(-c2[nH]ncc2CN2CCN(Cc3cccs3)CC2)cc(OC)c1OC,"inconclusive: 35.5 µM [falling, single point]",–
CN(C)c1nc(-c2cccs2)cc(C(F)(F)F)c1C#N,–,inactive: 13.9%
C/C(=N/NC(=O)c1ccc(Br)o1)c1ccncc1,"inconclusive: 20.6 µM [falling, single point]",–
O=C(CNC(=O)c1ccco1)NCC(=O)OCc1cccc(Cl)c1,–,inconclusive: 18.3%
N=c1oc2ccccc2cc1C(=O)NC1CCCCCC1,"inconclusive: 10 µM [falling, partial curve]",–
COc1ccc(/C=C2\Sc3ccc(C(=O)N4CCCC4)cc3N(C)C2=O)cc1OC,"inconclusive: 17.8 µM [falling, partial curve, poor fit]",–

SMILES,Potency,"activity change, negative = inhibition"
CCCCC(CC)CNC(=O)C(=O)C1C(=O)Nc2ccccc21 (configuration not stated),–,inconclusive: -25.2%
Cc1cc(C(=O)N/N=C/c2ccc([N+](=O)[O-])cc2)c(C)o1,"inconclusive: 6.31 µM [falling, partial curve]",–
CSc1ncccc1C(=O)OCC(=O)N(CC(C)C)C1CCS(=O)(=O)C1 (configuration not stated),"inconclusive: 31.6 µM [falling, single point]",–
O=C(NC1CC1)c1nc(Cn2cc([N+](=O)[O-])cn2)no1,–,inactive: 5.57%
O=C(Nc1cccc(NC(=O)c2ccc3c(c2)OCO3)c1)c1ccccc1,–,inconclusive: -4.66%
CCCCNC(=O)N1CCCC(C(=O)c2cc(C)c(OC)c(C)c2)C1 (configuration not stated),–,inactive: 0.205%
Cc1cccc(OCC(=O)N2CCC(N3CCOCC3)CC2)c1,–,inconclusive: 12.5%
CCc1ccc(CNC(=O)CCc2nnc(CCc3ccc(OC)cc3)o2)nc1,–,inconclusive: -0.616%
COc1ccc(NC(=O)C2CCCN(CCCc3ccccc3)C2)cc1OCC(C)C (configuration not stated),"inconclusive: 17.8 µM [falling, partial curve, poor fit]",–
O=S(=O)(Nc1cc(Cl)ccc1-n1cncn1)c1ccccc1Cl,–,inconclusive: 1.05%
Cn1c(CNC(=O)C(Cc2ccccc2)NC(=O)c2cccc(F)c2)cc(=O)n(C)c1=O (configuration not stated),–,inactive: 1.25%
CC12CCC(C(=O)N3CCN(c4ccccc4)CC3)(CC1=O)C2(C)C (configuration not stated),–,inconclusive: 2.64%
CCOC(=O)N1CCN(S(=O)(=O)N2CCCC(C(=O)NCc3cc(OC)ccc3OC)C2)CC1 (configuration not stated),–,inactive: -4.85%
Cc1ccc2oc(-c3ccco3)nc2c1,–,inconclusive: 6.46%
Clc1cccc(Cn2ncc3ccccc32)c1,–,inconclusive: 5.49%
CCc1ccc(-n2c(SC(CC)C(=O)N(CC)CC)nc3n[nH]c(C)c3c2=N)cc1 (configuration not stated),–,inconclusive: 11.3%
COc1ccc(N2CC(NC(=O)/C=C\c3ccc(OC)c(OC)c3)CC2=O)cc1 (configuration not stated),–,inactive: -3.64%
Cc1ccccc1NS(=O)(=O)c1ccc(C(=O)NCC(c2ccco2)N2CCCCC2)cc1 (configuration not stated),–,inconclusive: 0.438%
Fc1ccc(/C=N/NC(=S)NCCc2ccccc2)cc1F,"inconclusive: 15.8 µM [rising, partial curve, poor fit]",–
C/C(=N\NC(=O)C(N)=O)c1ccc(NC(=O)c2cccs2)cc1,"inconclusive: 15.8 µM [falling, partial curve]",–
O=C(Nc1ccc2c(c1)CCC2)c1ncoc1-c1ccccc1F,–,inconclusive: 14.2%

# Filtered by structure, the compounds so far with a COOH group
SMILES,Potency,"activity change, negative = inhibition"
O=C(NCCc1ccccc1)NC(Cc1ccccc1)C(=O)O (configuration not stated),–,inconclusive: 1.88%
O=C(O)c1cccc(NN=C2c3ccccc3-c3ccccc32)c1,"inconclusive: 22.4 µM [falling, single point]",–
